The values that follow come from US20150353597A1 (TEXAS A AND M UNIVERSITY SYSTEM, published 2015).

One test addresses C*-MBP (construct 10). Description: co-precipitation with ELP-N by ammonium sulfate.
The target in another test is T1, C*-β-Gal (construct 8) (Escherichia coli (strain K12), UniProt P00722 1-1024 = β-galactosidase).
T1 construct: also called C*-β-galactosidase
Description: lysates mixed 10 min at room temperature, 0.4 M ammonium sulfate precipitation of the ELP complex, SDS-PAGE.

B1: ELP-N (construct 5) (other)
chain: MGHGVGVPGVGVPGGGVPGAGVPGVGVPGVGVPGVGVPGGGVPGAGVPGGGVPGVGVPGVGVPGGGVPGAGVPGVGVPGVGVPGVGVPGGGVPGAGVPGGGVPGVGVPGVGVPGGGVPGAGVPGVGVPGVGVPGVGVPGGGVPGAGVPGGGVPGVGVPGVGVPGGGVPGAGVPGVGVPGVGVPGVGVPGGGVPGAGVPGGGVPGVGVPGVGVPGGGVPGAGVPGVGVPGVGVPGVGVPGGGVPGAGVPGGGVPGVGVPGVGVPGGGVPGAGVPGVGVPGVGVPGVGVPGGGVPGAGVPGGGVPGVGVPGVGVPGGGVPGAGVPGVGVPGVGVPGVGVPGGGVPGAGVPGGGVPGVGVPGVGVPGGGVPGAGVPGVGVPGVGVPGVGVPGGGVPGAGVPGGGVPGVGVPGVGVPGGGVPGAGVPGVGVPGVGVPGVGVPGGGVPGAGVPGGGVPGVGVPGVGVPGGGVPGAGVPGVGVPGVGVPGVGVPGGGVPGAGVPGGGVPGVGVPGVGVPGGGVPGAGVPGVGVPGVGVPGVGVPGGGVPGAGVPGGGVPGGLVSSNNNNNNNNNNLGIEGRISEFGGGGSGGGGSASCLSYETEILTVEYGLLPIGKIVEKRIECTVYSVDNNGNIYTQPVAQWHDRGEQEVFEYCLEDGSLIRATKDHKFMTVDGQMLPIDEIFERELDLMRVDNLPNLEHHHHHH
notes: also called ELP intein N-fragment
On to B1, for which the binding result with C*-MBP (construct 10) and with C*-β-Gal (construct 8) was “binds” throughout.
